Data as given in PubChem BioAssay AID493246 (Drosophila RNAi Screening Center, 2011)

- Screen: 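Identify essential fly genes by loss of cell viability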 (primary screen)
- System: Drosophila Kc and S2R+ cells
- Reagents: long dsRNA against Drosophila genes
- Read-out: 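Raw, unnormalised count of remaining cells in each well; per-plate z-scores of cell number underlie the calls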
- Direction: Kc cell number and S2R+ cell number: higher = more cells remaining
- Rule for the call: 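Active when the per-plate z-score of cell number is 3 or more in the direction of fewer cells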
In all, the deposit lists about 21,000 reagents; shown is a random part of those that have a named target and a result. Over the whole deposit, 429 (2%) are marked active. 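Values are raw and not normalised between plates; calls rest on per-plate z-scores that were not deposited.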 Entries without a mark were called inactive. No sequences are given here. Not given: the amount of reagent, the time to read-out.

no.	predicted target	amplicon	Kc cell number, rep 1	Kc cell number, rep 2	S2R+ cell number, rep 1	S2R+ cell number, rep 2
1	Tsp97E	DRSC16019	5.56e5		8.08e5	
2	CG15099	DRSC06528	1.25e6	1.32e6	1.03e6	1.10e6
3	Sgp	DRSC02195	1.26e6	1.27e6	9.65e5	9.47e5
4	mtd	DRSC12131	1.57e6	1.61e6	1.16e6	1.23e6
5	mtd	DRSC12380	1.63e6	1.68e6	1.17e6	1.27e6
6	mtd	DRSC12381	1.66e6	1.90e6	1.20e6	1.29e6
7	CG5644	DRSC10531	1.23e6	1.30e6	1.20e6	1.16e6
8	CG8679	DRSC03109	1.63e6	1.68e6	1.32e6	4.32e5
9	CG11619	DRSC09849	1.71e6	1.82e6	1.31e6	1.51e6
10	BomT3	DRSC13537	1.43e6	1.38e6	1.03e6	1.08e6
11	BomT3	DRSC15871	1.48e6	1.43e6	1.11e6	1.23e6
12	CG17129	DRSC08508	1.30e6	1.40e6	9.95e5	1.01e6
13	Pgm2b	DRSC05978	1.52e6	1.60e6	1.23e6	1.35e6
14	CG6052	DRSC10574	1.29e6	1.40e6	1.24e6	1.33e6
15	fid	DRSC14885	1.47e6	1.43e6	9.70e5	1.04e6
16	fid	DRSC16464	1.58e6	1.67e6	9.49e5	1.03e6
17	eIF3b	DRSC06900	1.32e6	1.37e6	7.75e5	8.77e5
18	Hsepi	DRSC04986	1.68e6	1.82e6	1.36e6	1.57e6
19	CG13305	DRSC09975	1.64e6	1.68e6	1.04e6	1.04e6
20	CG33679	DRSC01436	1.68e6	1.82e6	1.02e6	1.30e6
21	cwo	DRSC17072	1.60e6	1.62e6	9.68e5	1.01e6
22	CG3558	DRSC00615	1.33e6	1.30e6	8.48e5	9.65e5
23	Mbs	DRSC09414	1.49e6	1.61e6	1.14e6	1.31e6
24	Mbs	DRSC10525	1.67e6	1.67e6	1.32e6	1.35e6
25	Mbs	DRSC10553	1.56e6	1.73e6	1.25e6	1.43e6
26	PH4alphaNE1	DRSC16546	5.35e5		8.21e5	
27	Gld2	DRSC15863	9.84e5	9.97e5	5.91e5	6.71e5
28	PsGEF (retired record)	DRSC18600	1.41e6	1.42e6	8.54e5	9.72e5
29	PsGEF (retired record)	DRSC18601	1.53e6	1.52e6	9.17e5	1.05e6
30	CG12540	DRSC19471	1.53e6	1.56e6	1.14e6	1.21e6
31	CG15475	DRSC02486	1.52e6	1.64e6	1.38e6	3.37e5
32	COX7AL	DRSC15313	1.57e6	1.77e6	1.33e6	1.45e6
33	CG34223	DRSC05268	1.48e6	1.44e6	1.00e6	1.11e6
34	CG5731	DRSC02883	1.79e6	1.83e6	1.20e6	1.29e6
35	CG33506	DRSC05981	1.22e6	1.40e6	9.78e5	1.03e6
36	Noc1	DRSC10921	1.31e6	1.41e6	1.12e6	1.03e6
37	Su(var)3-3	DRSC10250	1.44e6	1.45e6	1.18e6	1.23e6
38	fusl	DRSC02351	1.21e6	1.26e6	6.04e5	7.31e5
39	Ets98B	DRSC16666	1.54e6	1.47e6	1.02e6	1.13e6
40	vg	DRSC07715	1.41e6	1.53e6	1.06e6	1.18e6
